Source: patent US6987089
These are yes or no findings as the source states them, for the method shown. Some entries that bind do so weakly or less than the wild type.

By UniProt entry, the sequences of proteins in these tests, tags left out. Where a name states a change or a piece, a line headed by the entry shows the natural chain unless it says otherwise.
UniProt P0A7C2: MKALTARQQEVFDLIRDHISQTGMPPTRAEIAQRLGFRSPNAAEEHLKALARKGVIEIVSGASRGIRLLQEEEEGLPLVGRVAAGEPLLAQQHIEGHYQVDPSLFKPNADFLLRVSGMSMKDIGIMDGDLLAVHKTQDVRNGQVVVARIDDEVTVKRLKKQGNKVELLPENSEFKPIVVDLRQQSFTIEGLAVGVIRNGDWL
UniProt O54788: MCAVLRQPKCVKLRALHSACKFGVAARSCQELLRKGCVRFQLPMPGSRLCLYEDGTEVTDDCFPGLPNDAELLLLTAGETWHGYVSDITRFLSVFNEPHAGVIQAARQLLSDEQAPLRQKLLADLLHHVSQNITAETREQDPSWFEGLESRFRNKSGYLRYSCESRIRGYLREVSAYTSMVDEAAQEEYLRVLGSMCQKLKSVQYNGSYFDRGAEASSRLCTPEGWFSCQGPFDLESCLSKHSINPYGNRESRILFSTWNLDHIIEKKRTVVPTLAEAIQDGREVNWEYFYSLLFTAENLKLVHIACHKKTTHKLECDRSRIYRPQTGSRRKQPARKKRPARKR
UniProt Q9UK41: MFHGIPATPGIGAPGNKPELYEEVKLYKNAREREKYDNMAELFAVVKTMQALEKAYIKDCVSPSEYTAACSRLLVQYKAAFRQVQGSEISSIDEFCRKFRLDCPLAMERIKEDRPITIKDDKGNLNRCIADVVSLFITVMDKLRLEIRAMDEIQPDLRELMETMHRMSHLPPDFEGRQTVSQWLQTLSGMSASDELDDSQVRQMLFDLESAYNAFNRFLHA

Molecular target: mouse CAD as yeast 2-hybrid bait (in the same manner as Example 1-1) (mouse) (UniProt P0A7C2+O54788)
Assay: yeast 2-hybrid screen, mouse CAD as bait, human fetal brain cDNA library

“human CIA clones from the human fetal brain cDNA library (yeast 2-hybrid prey) (from UniProt Q9UK41 1-221)” was tested, and the binding was “binds”.
